Laboratory results from patent US20080280824A1, “COMPOSITIONS AND METHODS FOR TREATMENT OF CANCER OR NEURODEGENERATIVE DISEASE WITH PEPTIDE BASED MICROTUBULE STABILIZERS OR INHIBITORS” (University of Washington, priority 2007, published 2008).
Results are given in words; binding and its absence hold for the method and conditions named. Some binding calls cover weakened binding; strength is not graded here. Values belong to the binder of their own block, whether it stands above or below them.

The chains behind the UniProt entries cited, without tags or fusion partners. Where a name states a change or a piece, a line headed by the entry shows the natural chain unless it says otherwise.
UniProt P81947: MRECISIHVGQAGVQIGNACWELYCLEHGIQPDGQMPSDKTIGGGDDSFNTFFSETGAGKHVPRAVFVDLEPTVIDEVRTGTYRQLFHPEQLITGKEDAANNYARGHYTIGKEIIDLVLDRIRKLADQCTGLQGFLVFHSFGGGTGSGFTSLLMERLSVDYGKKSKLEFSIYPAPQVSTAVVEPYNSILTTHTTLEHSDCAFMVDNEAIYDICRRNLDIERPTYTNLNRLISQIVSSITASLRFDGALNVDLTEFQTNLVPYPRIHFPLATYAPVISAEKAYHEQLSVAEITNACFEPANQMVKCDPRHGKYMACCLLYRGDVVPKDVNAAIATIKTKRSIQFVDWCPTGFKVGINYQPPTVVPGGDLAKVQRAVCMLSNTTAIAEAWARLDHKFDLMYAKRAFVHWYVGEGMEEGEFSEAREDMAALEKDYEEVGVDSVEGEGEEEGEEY
UniProt Q6B856: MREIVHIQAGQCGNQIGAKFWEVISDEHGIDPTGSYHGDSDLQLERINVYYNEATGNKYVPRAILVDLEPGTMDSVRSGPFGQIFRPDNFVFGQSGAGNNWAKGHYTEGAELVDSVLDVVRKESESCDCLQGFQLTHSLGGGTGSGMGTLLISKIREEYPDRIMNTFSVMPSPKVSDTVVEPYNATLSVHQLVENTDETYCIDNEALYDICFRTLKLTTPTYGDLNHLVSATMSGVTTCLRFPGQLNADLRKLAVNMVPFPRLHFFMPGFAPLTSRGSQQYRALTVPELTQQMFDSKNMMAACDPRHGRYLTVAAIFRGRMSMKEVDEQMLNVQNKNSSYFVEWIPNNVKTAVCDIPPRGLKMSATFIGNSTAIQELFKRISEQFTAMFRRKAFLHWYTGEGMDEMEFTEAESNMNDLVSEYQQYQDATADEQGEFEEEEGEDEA

Tests used:
[1] = target: T1, Bovine brain tubulin (bovine) (UniProt P81947+Q6B856); test: inferred from microtubule assembly and disassembly assays (DAPI fluorescence); no direct binding assay
[2] = target: T1, Bovine brain tubulin (bovine); test: inferred from the microtubule assembly assay (DAPI fluorescence); no direct binding assay

binding [1]: binds
B1: synthetic αB crystallin peptide 113FISREFHR120 (FI) (peptide)
peptide: FISREFHR

B2: synthetic αB crystallin peptide 156…164 (ER) (peptide)
peptide: ERTIPITRE
binding [2]: binds

B3: synthetic αB crystallin peptide 131…142 (LT) (peptide)
peptide: LTITSSLSSDGV
binding [2]: binds
